According to patent US20230167188A1:
No constants are given. Whether binding was seen depends on the method and setting. Some results given as binding are weak or reduced against the parent protein; the word gives no strength.

Sequences of proteins named here, by UniProt entry; tags and fusion partners are left off. Residues count along the entry.
UniProt P20333, residues 23-257: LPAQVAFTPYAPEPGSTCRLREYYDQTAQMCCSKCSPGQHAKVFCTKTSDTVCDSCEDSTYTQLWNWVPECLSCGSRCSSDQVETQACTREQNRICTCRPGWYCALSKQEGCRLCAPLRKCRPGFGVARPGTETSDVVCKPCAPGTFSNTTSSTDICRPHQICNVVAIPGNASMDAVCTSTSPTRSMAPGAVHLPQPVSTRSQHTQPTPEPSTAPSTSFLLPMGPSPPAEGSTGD

Molecular target: TNFR2-His-Fc (UniProt P20333)
Assay: ELISA, IgG coated, 100 nM TNFR2-His-Fc, anti His-HRP

binding: binds
B1: BDG30.114 (antibody, human IgG1, kappa, L234A L235A, V domains shown)
VH: EVQLVQSGPELKKPGASVKVSCKGSGYTFTDLGMNWVRQAPGQGLEWMGWINTQTGEPFYADDFKGRFVFSLDTSVSTAYLQISSLKAEDTAVYFCARDHPLGLDYWGQGTLVTVSS
VL: DIQVTQSPSSLSASVGDRVTITCITSQSVDVNGVSYLNWYQQKPGKVPKFLIYKASILRSGVPSRFSGSGSGTDFTLTISSLQPEDVATYYCQQSREDPYTFGQGTKVEIKR
